The list does not hold the whole screen: it gathers tests that were run many times, whatever their T/C, doses with no T/C, and many T/C values between a quarter and a half above the control. Other doses and runs of a compound stand elsewhere. T/C: endpoint of the treated group in % of that of the vehicle group. Some doses have a count of surviving animals in place of a T/C: the source holds a T/C of zero for them, seemingly a mark for toxic or unscored doses. Some doses without a T/C left all or most animals alive at the check, yet need not have been tolerated: survival well below the control is almost never listed, so the zero probably covers shortened survival too. Counts of survivors are from the toxicity check (mostly the fifth day) where no day follows; animals may have died later. Schedule codes are those of the source, taken here to give the interval after Q, in days (D) or hours (H), and the number of doses after X. Additions like (4×) count equal records among those shown. Some doses were run more than once; the results are listed from low to high. For survival time, the PubChem record calls one and a half times the control and up active, and a quarter to a half above the control has no call in these data; cut-offs in other NCI protocols can differ. Some T/C values are followed by the survivors on the day toxicity was checked, most often the fifth; without a count, all were alive then.
Tested on: P388 leukemia ip, CD2F1 mice, survival T/C
Assay: NCI In Vivo Anticancer Drug Screen. Data for tumor model P388 Leukemia (intraperitoneal) in CD2F1 (CDF1) mice
Settings: T/C endpoint: median survival time, higher T/C = longer survival
[1] = dose: 200.0 mg/kg/injection, schedule: Q01DX005 (ip), vehicle: saline
[2] = dose: 200.0 mg/kg/injection, schedule: Q01DX009 (ip), vehicle: saline with Tween-80
[3] = dose: 400.0 mg/kg/injection, schedule: Q01DX001 (ip), vehicle: Klucel (hydroxypropylcellulose) (HPC)

## O=C(Nc1ccc([N+](=O)[O-])cc1)Nc1nccs1
dose: 25.0 mg/kg/injection, schedule: Q01DX009 (ip), vehicle: distilled water + Tween-80
  T/C: 127 % of control
dose: 50.0 mg/kg/injection, schedule: Q01DX009 (ip), vehicle: distilled water + Tween-80
  T/C: 130 and 142 % of control
dose: 100.0 mg/kg/injection, schedule: Q01DX009 (ip), vehicle: distilled water + Tween-80
  survivor count: 3 of 6
dose: 200.0 mg/kg/injection, schedule: Q01DX009 (ip), vehicle: distilled water + Tween-80
  survivor count: 0 of 6 and 1 of 6
dose: 400.0 mg/kg/injection, schedule: Q01DX009 (ip), vehicle: distilled water + Tween-80
  survivor count: 0 of 6

## Cc1cc(=O)oc2c(CNC(C(=O)O)C(C)C)c(O)ccc12 (configuration not stated)
dose: 240.0 mg/kg/injection, schedule: Q01DX005 (ip), vehicle: Klucel (hydroxypropylcellulose) (HPC)
  survivor count: 0 of 6

## COc1cc(C2=NCCc3cc4c(cc32)OCO4)cc(OC)c1OC
[1]
  T/C: 135 % of control [5 of 6 alive]
dose: 400.0 mg/kg/injection, schedule: Q01DX005 (ip), vehicle: saline
  survivor count: 0 of 6

## CCCCC(C)N(CCNc1cc(OC)cc2cccnc12)CC(C)C (configuration not stated)
dose: 100.0 mg/kg/injection, schedule: Q01DX005 (ip), vehicle: saline
  survivor count: 2 of 5
[1]
  survivor count: 0 of 5

## CC(C)SC(=S)S(=O)(=O)c1ccc(Cl)cc1
[2]
  survivor count: 0 of 6 (2×)

## N#Cc1c(-c2ccc(Cl)cc2)c(-c2ccc(Cl)cc2)nn(CCOC(=O)CCC(=O)OCCn2nc(-c3ccc(Cl)cc3)c(-c3ccc(Cl)cc3)c(C#N)c2=O)c1=O
dose: 200.0 mg/kg/injection, schedule: Q04DX002 (ip), vehicle: distilled water + Tween-80
  survivor count: 6 of 6

## COc1c2occc2c(NC(=O)C(F)(F)F)c2ccc(=O)oc12
dose: 400.0 mg/kg/injection, schedule: Q04DX002 (ip), vehicle: saline
  survivor count: 1 of 6

## COc1ccc(CC2C(=O)NC(C)C(=O)N(C)C3Cc4ccc(cc4)Oc4cc(ccc4O)CC(C(=O)NC(C)C(=O)NC(C)C(=O)N2C)N(C)C3=O)cc1 (configuration not stated)
dose: 0.25 mg/kg/injection, schedule: Q01DX009 (ip), vehicle: saline with Tween-80
  T/C: 141 and 142 % of control [5 of 6 alive]
dose: 0.75 mg/kg/injection, schedule: Q04DX003 (ip), vehicle: other
  T/C: 140 % of control
dose: 1.0 mg/kg/injection, schedule: Q01DX009 (ip), vehicle: saline with Tween-80
  T/C: 148 % of control
dose: 1.5 mg/kg/injection, schedule: Q03HX024 (ip), vehicle: other
  survivor count: 4 of 10
dose: 2.25 mg/kg/injection, schedule: Q01DX001 (ip), vehicle: other
  T/C: 134 % of control
dose: 2.25 mg/kg/injection, schedule: Q03HX008 (ip), vehicle: other
  survivor count: 0 of 10
dose: 3.0 mg/kg/injection, schedule: Q03HX024 (ip), vehicle: other
  survivor count: 0 of 10
dose: 4.5 mg/kg/injection, schedule: Q01DX001 (ip), vehicle: other
  T/C: 135 % of control
dose: 4.5 mg/kg/injection, schedule: Q03HX008 (ip), vehicle: other
  survivor count: 0 of 10
dose: 6.0 mg/kg/injection, schedule: Q03HX024 (ip), vehicle: other
  survivor count: 0 of 10
dose: 8.0 mg/kg/injection, schedule: Q01DX009 (ip), vehicle: saline with Tween-80
  T/C: 146 % of control
dose: 9.0 mg/kg/injection, schedule: Q01DX001 (ip), vehicle: other
  T/C: 147 % of control
dose: 9.0 mg/kg/injection, schedule: Q03HX008 (ip), vehicle: other
  survivor count: 0 of 10
dose: 14.4 mg/kg/injection, schedule: Q01DX005 (ip), vehicle: other
  survivor count: 2 of 10
dose: 14.4 mg/kg/injection, schedule: Q01DX005 (iv), vehicle: other
  survivor count: 1 of 10
dose: 16.0 mg/kg/injection, schedule: Q01DX009 (ip), vehicle: other
  survivor count: 0 of 10
dose: 18.0 mg/kg/injection, schedule: Q01DX001 (ip), vehicle: other
  survivor count: 6 of 10
dose: 18.0 mg/kg/injection, schedule: Q01DX001 (iv), vehicle: other
  T/C: 125 % of control
dose: 18.0 mg/kg/injection, schedule: Q03HX008 (ip), vehicle: other
  survivor count: 0 of 10
dose: 24.0 mg/kg/injection, schedule: Q04DX003 (ip), vehicle: other
  survivor count: 3 of 10
dose: 28.8 mg/kg/injection, schedule: Q01DX005 (ip), vehicle: other
  survivor count: 0 of 10
dose: 36.0 mg/kg/injection, schedule: Q01DX001 (ip), vehicle: other
  survivor count: 1 of 10
dose: 36.0 mg/kg/injection, schedule: Q01DX001 (iv), vehicle: other
  survivor count: 1 of 10
dose: 48.0 mg/kg/injection, schedule: Q04DX003 (ip), vehicle: other
  survivor count: 0 of 10
dose: 64.0 mg/kg/injection, schedule: Q01DX009 (oral), vehicle: other
  survivor count: 3 of 10
dose: 72.0 mg/kg/injection, schedule: Q01DX001 (ip), vehicle: other
  survivor count: 0 of 10

## CCn1c(=O)c2[nH]c(Cl)nc2n(CCCl)c1=O
dose: 64.0 mg/kg/injection, schedule: Q01DX009 (ip), vehicle: Klucel (hydroxypropylcellulose) (HPC)
  T/C: 125 % of control
dose: 256.0 mg/kg/injection, schedule: Q01DX009 (ip), vehicle: Klucel (hydroxypropylcellulose) (HPC)
  survivor count: 0 of 6

## O=C1CSC(COc2ccc(Cl)cc2Cl)O1 (configuration not stated)
dose: 100.0 mg/kg/injection, schedule: Q01DX009 (ip), vehicle: Klucel (hydroxypropylcellulose) (HPC)
  survivor count: 1 of 6

## NN/C(N)=N/S(=O)(=O)c1ccccc1
dose: 200.0 mg/kg/injection, schedule: Q01DX005 (ip), vehicle: Klucel (hydroxypropylcellulose) (HPC)
  survivor count: 5 of 5

## O=C(O)CCS(=O)(=O)CCC(=O)O
dose: 400.0 mg/kg/injection, schedule: Q04DX003 (ip), vehicle: saline with Tween-80
  survivor count: 5 of 6

## OC1(c2ccccc2)C(c2ccccc2)=C(c2ccccc2)C(c2ccc(CCCCCCCCc3ccc(C4=C(c5ccccc5)C(O)(c5ccccc5)C(c5ccccc5)=C4c4ccccc4)cc3)cc2)=C1c1ccccc1 (configuration not stated)
[3]
  survivor count: 6 of 6

## CC(=O)/C(Cl)=N\O
dose: 50.0 mg/kg/injection, schedule: Q01DX005 (ip), vehicle: saline with Tween-80
  survivor count: 0 of 5
dose: 100.0 mg/kg/injection, schedule: Q01DX005 (ip), vehicle: saline with Tween-80
  survivor count: 0 of 5
dose: 200.0 mg/kg/injection, schedule: Q01DX005 (ip), vehicle: saline with Tween-80
  survivor count: 0 of 5

## CC1=C2CCCCCC2(O)OC1=O (configuration not stated)
dose: 100.0 mg/kg/injection, schedule: Q01DX001 (ip), vehicle: saline
  survivor count: 6 of 6
dose: 200.0 mg/kg/injection, schedule: Q01DX001 (ip), vehicle: saline
  survivor count: 2 of 6
dose: 400.0 mg/kg/injection, schedule: Q01DX001 (ip), vehicle: saline
  survivor count: 0 of 6

## COc1ccc2c(n1)c(=NCCCCCCN=c1c3ccc(Cl)cc3n(O)c3ccc(OC)nc13)c1ccc(Cl)cc1n2O
dose: 400.0 mg/kg/injection, schedule: Q04DX003 (ip), vehicle: Klucel (hydroxypropylcellulose) (HPC)
  survivor count: 2 of 6

## CCOC(=O)COc1ccc(/C=C(\C)[N+](=O)[O-])c2ccccc12
dose: 400.0 mg/kg/injection, schedule: Q01DX009 (ip), vehicle: saline with Tween-80
  survivor count: 3 of 6

## OC(c1cc2cc(Br)ccc2c2cc(Br)ccc12)C1CCCCN1 (configuration not stated)
dose: 50.0 mg/kg/injection, schedule: Q01DX009 (ip), vehicle: saline with Tween-80
  survivor count: 6 of 6
dose: 100.0 mg/kg/injection, schedule: Q01DX009 (ip), vehicle: saline with Tween-80
  survivor count: 0 of 6
[2]
  survivor count: 0 of 6

## COc1cc(C2CC(=O)N(c3ccc(C)cc3)C(=O)C2)cc(OC)c1OC
dose: 75.0 mg/kg/injection, schedule: Q01DX009 (ip), vehicle: Klucel + Tween-80
  T/C: 142 % of control
dose: 400.0 mg/kg/injection, schedule: Q01DX005 (ip), vehicle: Klucel + Tween-80
  T/C: 149 % of control

## CCCCOP(=O)(O)OCCCC
[3]
  survivor count: 6 of 6

## O=c1c2ccccc2nc(/C=N/NC(=S)Nc2ccc(Cl)cc2)n1-c1ccc(Br)cc1
dose: 400.0 mg/kg/injection, schedule: Q04DX002 (ip), vehicle: saline with Tween-80
  survivor count: 0 of 6

## CC1C(C(=O)NCC(c2ccccc2)c2ccccc2)CC2CCCCN21 (configuration not stated)
dose: 120.0 mg/kg/injection, schedule: Q01DX005 (ip), vehicle: saline with Tween-80
  survivor count: 0 of 6
dose: 240.0 mg/kg/injection, schedule: Q01DX005 (ip), vehicle: saline with Tween-80
  survivor count: 0 of 6
